# Data reported in paper PMC8322138, “BRCA2 binding through a cryptic repeated motif to HSF2BP oligomers does not impact meiotic recombination” (Nature Communications, 2021).
# Amino acid sequences for entries named in this document (tags omitted).
# UniProt P97929: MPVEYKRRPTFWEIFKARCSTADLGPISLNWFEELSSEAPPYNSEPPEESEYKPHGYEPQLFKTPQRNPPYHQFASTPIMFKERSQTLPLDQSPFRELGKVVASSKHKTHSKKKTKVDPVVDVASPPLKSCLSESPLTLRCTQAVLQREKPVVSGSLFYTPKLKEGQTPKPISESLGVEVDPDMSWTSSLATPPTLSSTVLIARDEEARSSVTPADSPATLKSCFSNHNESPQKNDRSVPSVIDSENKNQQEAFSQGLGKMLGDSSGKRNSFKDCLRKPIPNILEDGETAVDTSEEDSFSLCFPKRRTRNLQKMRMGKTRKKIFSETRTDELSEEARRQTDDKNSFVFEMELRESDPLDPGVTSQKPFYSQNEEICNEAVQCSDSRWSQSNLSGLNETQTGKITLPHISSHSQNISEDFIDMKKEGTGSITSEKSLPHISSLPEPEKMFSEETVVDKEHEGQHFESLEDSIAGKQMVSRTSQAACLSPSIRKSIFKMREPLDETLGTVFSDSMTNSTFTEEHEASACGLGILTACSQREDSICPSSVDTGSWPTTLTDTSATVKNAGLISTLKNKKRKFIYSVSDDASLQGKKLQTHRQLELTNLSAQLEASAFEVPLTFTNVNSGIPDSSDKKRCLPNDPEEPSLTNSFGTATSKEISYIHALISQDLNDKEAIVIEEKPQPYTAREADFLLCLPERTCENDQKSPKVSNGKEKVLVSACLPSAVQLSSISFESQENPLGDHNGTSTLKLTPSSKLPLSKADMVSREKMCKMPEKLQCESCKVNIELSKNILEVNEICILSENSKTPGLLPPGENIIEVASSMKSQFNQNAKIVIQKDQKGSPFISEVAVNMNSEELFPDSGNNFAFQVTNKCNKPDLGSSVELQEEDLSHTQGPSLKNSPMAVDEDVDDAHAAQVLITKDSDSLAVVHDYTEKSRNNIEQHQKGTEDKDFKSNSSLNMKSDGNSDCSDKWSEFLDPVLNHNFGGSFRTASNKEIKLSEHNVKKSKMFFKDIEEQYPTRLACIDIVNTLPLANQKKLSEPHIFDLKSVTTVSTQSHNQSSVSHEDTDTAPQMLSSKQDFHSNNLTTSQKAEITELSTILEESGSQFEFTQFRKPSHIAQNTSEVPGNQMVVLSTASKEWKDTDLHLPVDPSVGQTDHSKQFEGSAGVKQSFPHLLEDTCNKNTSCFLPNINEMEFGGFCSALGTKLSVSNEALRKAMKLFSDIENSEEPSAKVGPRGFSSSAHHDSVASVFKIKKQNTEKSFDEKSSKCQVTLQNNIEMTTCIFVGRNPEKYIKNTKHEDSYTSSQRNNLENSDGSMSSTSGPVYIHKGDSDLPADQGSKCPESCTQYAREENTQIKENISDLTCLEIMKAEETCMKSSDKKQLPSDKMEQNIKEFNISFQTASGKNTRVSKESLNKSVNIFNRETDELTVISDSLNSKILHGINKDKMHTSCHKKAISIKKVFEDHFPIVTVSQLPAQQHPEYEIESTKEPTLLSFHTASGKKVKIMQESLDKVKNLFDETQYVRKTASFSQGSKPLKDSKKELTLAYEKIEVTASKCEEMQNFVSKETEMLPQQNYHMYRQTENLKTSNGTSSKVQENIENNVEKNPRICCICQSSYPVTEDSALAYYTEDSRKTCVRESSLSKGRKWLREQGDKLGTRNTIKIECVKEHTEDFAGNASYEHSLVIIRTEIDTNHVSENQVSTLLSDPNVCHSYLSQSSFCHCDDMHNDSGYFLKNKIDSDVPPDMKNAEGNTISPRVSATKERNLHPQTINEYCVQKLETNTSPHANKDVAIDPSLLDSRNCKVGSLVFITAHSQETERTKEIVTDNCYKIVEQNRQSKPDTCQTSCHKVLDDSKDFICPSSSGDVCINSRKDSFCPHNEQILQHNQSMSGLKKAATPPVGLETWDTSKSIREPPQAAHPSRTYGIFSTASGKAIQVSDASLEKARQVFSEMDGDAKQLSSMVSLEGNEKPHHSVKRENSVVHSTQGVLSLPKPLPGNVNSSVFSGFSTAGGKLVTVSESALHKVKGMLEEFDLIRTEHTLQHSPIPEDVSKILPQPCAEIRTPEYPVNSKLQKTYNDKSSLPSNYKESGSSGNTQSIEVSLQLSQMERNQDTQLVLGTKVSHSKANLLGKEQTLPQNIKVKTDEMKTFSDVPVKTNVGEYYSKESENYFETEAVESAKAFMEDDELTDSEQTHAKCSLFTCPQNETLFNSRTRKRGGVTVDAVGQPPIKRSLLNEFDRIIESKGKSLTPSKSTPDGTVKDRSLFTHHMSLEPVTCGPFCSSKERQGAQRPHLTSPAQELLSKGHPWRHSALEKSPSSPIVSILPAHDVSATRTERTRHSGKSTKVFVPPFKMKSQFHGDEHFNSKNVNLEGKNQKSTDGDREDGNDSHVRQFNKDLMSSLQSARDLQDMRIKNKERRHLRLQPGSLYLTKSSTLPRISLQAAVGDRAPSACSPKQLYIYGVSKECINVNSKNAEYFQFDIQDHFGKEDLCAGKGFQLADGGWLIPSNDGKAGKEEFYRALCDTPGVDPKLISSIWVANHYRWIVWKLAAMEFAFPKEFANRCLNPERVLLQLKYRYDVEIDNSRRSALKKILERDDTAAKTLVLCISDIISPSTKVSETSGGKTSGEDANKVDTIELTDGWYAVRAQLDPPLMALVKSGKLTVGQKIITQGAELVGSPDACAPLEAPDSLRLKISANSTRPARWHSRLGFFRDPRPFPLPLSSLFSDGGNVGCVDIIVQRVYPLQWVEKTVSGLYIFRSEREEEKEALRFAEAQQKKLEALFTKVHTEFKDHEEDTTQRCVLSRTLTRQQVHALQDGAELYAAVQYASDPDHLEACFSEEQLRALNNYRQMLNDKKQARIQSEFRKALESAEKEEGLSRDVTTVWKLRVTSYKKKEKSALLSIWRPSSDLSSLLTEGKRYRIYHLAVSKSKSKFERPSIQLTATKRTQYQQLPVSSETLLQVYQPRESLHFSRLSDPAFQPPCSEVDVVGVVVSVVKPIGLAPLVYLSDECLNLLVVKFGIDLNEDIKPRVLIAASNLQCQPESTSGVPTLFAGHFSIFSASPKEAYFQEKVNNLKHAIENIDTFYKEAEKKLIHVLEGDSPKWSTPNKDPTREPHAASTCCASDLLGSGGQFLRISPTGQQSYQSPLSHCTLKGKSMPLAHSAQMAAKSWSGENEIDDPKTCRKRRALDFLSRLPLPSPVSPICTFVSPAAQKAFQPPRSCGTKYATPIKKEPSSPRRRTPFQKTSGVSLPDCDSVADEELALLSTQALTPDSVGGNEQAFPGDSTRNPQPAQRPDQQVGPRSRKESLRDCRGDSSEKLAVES
# Results are given in words; binding and its absence hold for the method and conditions named. Binding seen in cells or lysates may run through a third protein. Some results given as binding are weak or reduced against the parent protein; the word gives no strength. For part of these data: Sequences can lack the tags named with a protein.
# T1: mouse HSF2BP, endogenous in testis (mouse (endogenous in testis)) (UniProt Q9D4G2)
# T1 sequence: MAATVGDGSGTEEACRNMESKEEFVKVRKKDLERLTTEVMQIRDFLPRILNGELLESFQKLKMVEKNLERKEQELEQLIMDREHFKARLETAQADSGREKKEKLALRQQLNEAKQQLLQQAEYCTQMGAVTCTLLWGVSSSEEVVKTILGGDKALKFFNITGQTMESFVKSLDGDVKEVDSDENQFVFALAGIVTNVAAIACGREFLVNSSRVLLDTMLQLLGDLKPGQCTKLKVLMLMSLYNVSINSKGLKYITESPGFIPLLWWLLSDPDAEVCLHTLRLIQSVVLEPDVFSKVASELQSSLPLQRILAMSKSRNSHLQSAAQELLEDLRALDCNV
# T2: mouse HSF2BP-GFP (homozygous Hsf2bp-GFP knock-in allele) (mouse (endogenous in mES cells)) (UniProt Q9D4G2)
# T2 sequence: T1 sequence
# B1: mouse HSF2BP, endogenous in mES cells (protein, UniProt Q9D4G2 1-338)
# chain: T1 sequence
# Assays:
# [1] = biological target: T1, mouse HSF2BP, endogenous in testis (mouse (endogenous in testis)); experiment: co-IP; mouse testis lysate (NETT++ or RIPA++), anti-HSF2BP or anti-RAD51 antibodies cross-linked to protein A beads, 4 h at 4 C; BRCA2, BRME1, RAD51 and HSF2BP blotted
# [2] = biological target: T2, mouse HSF2BP-GFP (homozygous Hsf2bp-GFP knock-in allele) (mouse (endogenous in mES cells)); experiment: co-IP; anti-GFP nanobody beads on lysates of Hsf2bp^GFP/GFP mES cells with Brca2 wt, ∆12 or ∆12-14 alleles; BRCA2 blotted, fluorescent secondary antibodies; NETT buffer
# [3] = biological target: mouse full-length BRCA2-GFP (homozygous Brca2-GFP knock-in allele) (mouse (endogenous in mES cells)) (UniProt P97929); experiment: co-IP; anti-GFP nanobody beads on lysates of mES cells with homozygous Brca2-GFP alleles (full, ∆12, ∆12-14); HSF2BP blotted, fluorescent secondary antibodies; NETT buffer
molecule,measurement,setting,value
"mouse BRCA2, endogenous in Brca2^+/+ testis (from UniProt P97929 1-3329)",binding,[1],binds
"mouse BRCA2, endogenous in Hsf2bp^GFP/GFP Brca2^wt/wt mES cells (from UniProt P97929 1-3329)",binding,[2],binds
B1,binding,[3],binds
